Measurements: paper PMC12040169 (PLOS Biology, 2025)
Some of the results follow.

The molecules below were run on T1, CTL2-GFP (C. trachomatis L2/434/Bu, GFP-expressing). Conditions: bulk GFP, single well; 28.5 h, 10 µM; inhibitor.
T1 construct: L2/434/Bu, GFP-expressing
Parameters: species or system HeLa; Intracellular C. trachomatis growth in HeLa cells, bulk GFP fluorescence relative to DMSO

Row | SMILES | % of control remaining [%]
1 | CCCCCC1=NN(C(=O)c2ccccc2Br)C(O)(C(F)(F)F)C1 (stereo not drawn) [CBK027223] | 104.719
2 | O=C(O)Cc1sc(NCCN2CCOCC2)nc1-c1ccccc1 [CBK200113T] | 138.443
3 | Cc1ccc(CN(Cc2[nH]cnc2C)C2CC(C)(C)NC(C)(C)C2)o1 [CBK283176] | 104.647
4 | O=C(/C=C/c1cn(C2CC(O)C(CO)O2)c(=O)[nH]c1=O)NCCCCCCNC(=O)C(F)(F)F (stereo not drawn) [CBK201310] | 145.87
5 | O=C(CN1CCN(CC(=O)NC2CC2)CC1)Nc1cc(Cl)ccc1Cl [CBK306091] | 86.4211
6 | CC(=O)NCC1CC(c2ccc(C3=CCN(C(C)=O)CC3)cc2)=NO1 (stereo not drawn) [CBK010245] | 106.466
7 | CN1C(/C=N/O)=C(O)c2ccccc2S1(=O)=O [CBK010098] | 124.235
8 | CN(C)CCNC(=O)c1ccc(COc2ccc(Cl)cc2Cl)cc1 [CBK265878] | 87.3592
9 | Oc1ccc2cc(-c3ccc(OC(F)(F)F)cc3)cnc2n1 [CBK081300] | 118.752
10 | CC(/C=C1\SC(=S)N(CCC(=O)Nc2ccc(O)c(C(=O)O)c2)C1=O)=C\c1ccccc1 [CBK263875] | 104.444
11 | O=C(C1CCCC1)N1CCC(n2nc(-c3cccs3)oc2=O)CC1 [CBK282424] | 117.238
12 | CCN1CCN(c2ccc3nnc(C(C)C)n3n2)CC1 [CBK287974] | 134.615
13 | CN(C)CCCN[C@H]1CC[C@@H](c2ccccc2)CC1 [CBK016465] | 140.049
14 | COc1cc(C)nc(NC(=O)Nc2cccc(Cl)c2)n1 [CBK269828] | 141.522
15 | Cc1cnc2c(C(=O)N3CCCC3c3ccccn3)cnn2c1 (stereo not drawn) [CBK304612] | 128.203
16 | O=C(CC1Sc2ccc(Cl)cc2NC1=O)Nc1ccc([N+](=O)[O-])cc1 (stereo not drawn) [CBK264860] | 141.651
17 | Cc1ccc(C)c(NC(CC(=O)c2ccccc2)C(=O)O)c1 (stereo not drawn) [CBK265485] | 125.716
18 | CCOC(=O)C1(C2CCCCC2)CCN(C(=O)CCC(=O)O)CC1 [CBK136939] | 106.361
19 | Nc1ccc(C(=O)Nc2ccc(Nc3cc(-c4cccnc4)ncn3)cc2)cc1 [CBK037823] | 124.196
20 | CC(C)(CO)CNc1cncc(-c2cc3ccccc3o2)n1 [CBK066029] | 154.175
21 | CN(C)CCn1c2c(c3ccccc31)CCCn1nnnc1-2 [CBK267713C] | 135.645
22 | N#Cc1cc2c([nH]c1=S)CCN(Cc1ccccc1)C2 [CBK288378] | 147.391
23 | Cc1csc(-c2ccc(C(=O)N(C)CCN(C)C)c(NCC3CC3)n2)c1 [CBK106279] | 119.58
24 | Cc1nc(C)n(CCC(=O)NC(C)c2cccs2)n1 (stereo not drawn) [CBK282224] | 106.518
25 | Cc1cccc(CC(=O)N2CCCC2c2n[nH]cc2-c2ccncc2)c1 (stereo not drawn) [CBK283447] | 172.135
26 | CCN(Cc1ccncc1)C(=O)NCc1cnc(C)cn1 [CBK155128] | 104.567

4 records drawn at random from the list so far, as already listed:
Row | SMILES | % of control remaining [%]
12 | CCN1CCN(c2ccc3nnc(C(C)C)n3n2)CC1 [CBK287974] | 134.615
17 | Cc1ccc(C)c(NC(CC(=O)c2ccccc2)C(=O)O)c1 (stereo not drawn) [CBK265485] | 125.716
9 | Oc1ccc2cc(-c3ccc(OC(F)(F)F)cc3)cnc2n1 [CBK081300] | 118.752
23 | Cc1csc(-c2ccc(C(=O)N(C)CCN(C)C)c(NCC3CC3)n2)c1 [CBK106279] | 119.58

Shown in CSV form: two of the compounds above
Row,SMILES,% of control remaining [%]
3,Cc1ccc(CN(Cc2[nH]cnc2C)C2CC(C)(C)NC(C)(C)C2)o1 [CBK283176],104.647
15,Cc1cnc2c(C(=O)N3CCCC3c3ccccn3)cnn2c1 (stereo not drawn) [CBK304612],128.203

(next part)

Row | SMILES | % of control remaining [%]
27 | COc1ccc(C(C)C)cc1-c1nccnc1NCc1ccc2c(c1)OCO2 [CBK036683] | 113.971
28 | COCC(=O)N[C@H]1C[C@H]2C(=O)Nc3ccc(-c4ccsc4)cc3C(=O)N2C1 [CBK289360] | 113.097
29 | Cn1c(CN2CCN(c3ccc(C#N)cn3)CC2)nnc1C1CC1 [CBK304781] | 144.135
30 | CCC1CCCCN1C(=O)c1ccc(C(C)(C)C)cc1 (stereo not drawn) [CBK076644] | 98.5122
31 | COc1c(C)cc(S(=O)(=O)NCCN2CCOCC2)c(C)c1C [CBK269893] | 126.035
32 | COCCNC(=O)c1ccc(-c2cccc(Cl)c2Cl)nc1N(C)C [CBK106057] | 112.501
33 | Clc1cccc(Nc2cncc(-c3cccc4ccccc34)n2)c1 [CBK065764] | 114.588
34 | COc1cc(NC(=O)N(CCC#N)C2CCCCC2)cc(OC)c1OC [CBK156380] | 137.012
35 | Cc1csc(S(=O)(=O)Cc2nnc(C)n2C2CC2)n1 [CBK305494] | 107.845
36 | COc1ccc2nc(N/C(N)=N/C(=O)COc3ccc(Cl)cc3)nc(C)c2c1 [CBK263924] | 52.1766
37 | Cc1cc2ncc3c(n2n1)NC(c1ccc(Cl)cc1Cl)NC3=O (stereo not drawn) [CBK291167] | 126.826
38 | Fc1ccc(CN(Cc2ccco2)C2CCN(c3ccc4c(c3)OCO4)CC2)cc1 [CBK286197] | 108.101
39 | CN(Cc1ccc(O)cc1)C(=O)NC1CCCc2c1cnn2CCO (stereo not drawn) [CBK305354] | 115.562
40 | O=C(O)C1C2CCC(O2)C1C(=O)Nc1ccc(S(=O)(=O)N2CCc3ccccc32)cc1 (stereo not drawn) [CBK268137] | 113.072
41 | Cc1cc(C)nc(Nc2nc3ccccc3[nH]2)n1 [CBK263539] | 123.362
42 | O=C(O)c1ccc(C(=O)c2c3c(=O)n(-c4ccccc4C(=O)O)c(=O)c3cc3c(=O)n(-c4ccccc4C(=O)O)c(=O)c23)cc1 [CBK261183] | 91.7958
43 | CCn1ncc(CN2CCCC(CCC(=O)N3CCN(C)CC3)C2)c1C (stereo not drawn) [CBK306951] | 119.298
44 | CCC(C)NC(=O)Cn1cccc2cc(C3CCCNC3)nc1-2 (stereo not drawn) [CBK285087] | 115.825
45 | O=C(NCc1cccnc1)C(=O)Nc1ccc(F)cc1F [CBK269481] | 107.4
46 | O=C(Nc1cccc(CCc2ccccn2)c1)Nc1cccc2ccccc12 [CBK262337] | 118.708
47 | CN(C)c1ccc(-n2ccn(S(=O)(=O)c3ccc(Oc4ccccc4)cc3)c2=O)cc1 [CBK106608] | 176.013
48 | O=C(CCN1CCN(C(c2ccccc2)c2ccccc2)CC1)c1ccccc1 [CBK074788] | 100.762
49 | Cc1ccc(-c2cc(C(=O)NCc3ccc(-c4ccc(C(N)=O)c(C)n4)cc3)no2)cc1 [CBK285644] | 87.7656
50 | Cc1cc(C)n(CC(C)CNC(=O)Cc2csc(-c3ccco3)n2)n1 (stereo not drawn) [CBK305628] | 131.077
51 | COCCn1c(CO)nnc1[C@H]1C[C@@H](NC(=O)c2ccc(C)cc2F)C1 [CBK307296] | 106.11
52 | O=C(CSc1n[nH]c(=S)s1)NCCc1ccccc1 [CBK023445] | 110.103

Row | SMILES | % of control remaining [%]
53 | O=C(/C=C/c1c[nH]c2ccccc12)c1ccc(C(=O)/C=C/c2c[nH]c3ccccc23)cc1 [CBK264224] | 138.408
54 | Cc1ccc2cc(S(=O)(=O)Nc3cccc(C(=O)O)c3)ccc2c1 [CBK299812] | 135.616
55 | CC1CCc2c(sc(NC(=O)c3cccs3)c2C#N)C1 (stereo not drawn) [CBK304625] | 107.29
56 | COC(=O)CCc1ccc(S(=O)(=O)N2CCCN(Cc3cc(Cl)cc(Cl)c3)CC2)cc1 [CBK062982] | 106.839
57 | Cc1nc(COc2ccc(Cl)cc2)sc1C(=O)N1CCC1 [CBK306353] | 143.858
58 | CC(C)NC(=O)c1cc(C2CCN(C(=O)CCCc3ccc(F)cc3)C2)nc2ccccc12 (stereo not drawn) [CBK285921] | 100.844
59 | CCOC(=O)CN1CCC(Oc2cncc(OCc3cccnc3)n2)C1 (stereo not drawn) [CBK084462] | 130.467
60 | Cc1cc(NC(=O)N2CCN(c3ncccc3C#N)CC2)no1 [CBK305901] | 107.251
61 | O=C(NN=C1CCCCCCCCCCC1)c1cc2ccccc2cc1O [CBK261706] | 109.066
62 | CC1CCc2c(sc(NC(=S)NC(=O)c3cc4ccccc4o3)c2C#N)C1 (stereo not drawn) [CBK266319] | 189.472
63 | CCN1CCC2(CC1)CN(CC(N)=O)c1ccccc12 [CBK126798] | 123.833
64 | O=C(O)C(CCCN1CCCC1)(c1ccccc1)c1ccccc1 [CBK022695G] | 164.848
65 | COc1ccc2cc(CNc3ccc(Oc4ccccc4)cc3)c(=O)[nH]c2c1 [CBK286158] | 129.556
66 | COc1ccc(OCC(=O)Nc2ccc3oc(-c4ccc(OC)c(Br)c4)nc3c2)cc1 [CBK263913] | 111.551
67 | O=C(Cn1nnc2ccccc21)NCCN1CCCC1 [CBK267200] | 132.86
68 | CCOC(=O)c1cnc(SCC(=O)N2CCN(c3ccccc3)CC2)nc1N [CBK269159] | 129.173
69 | CCOc1ccccc1NC(=O)CCCN1C(=O)c2ccccc2C1=O [CBK265608] | 94.241
70 | O=C(Nc1cccc(C(F)(F)F)c1)Nc1cc(N2CCNCC2)c2occc2c1 [CBK061746C] | 69.6727
71 | CC1(C)CC(=O)c2sc(NC(=O)CN3C(=O)CCC3=O)nc2C1 [CBK287558] | 129.66
72 | O=C(C[C@@H]1CCNC[C@@H]1Cc1cc(-c2ccccc2)on1)N1CCN(c2ccccc2)CC1 [CBK289148] | 107.866
73 | COc1ccc(CC(=O)NCC(=O)N2CCC3(CC2)NCCc2nc[nH]c23)cc1 [CBK287997] | 87.2937
74 | O=C(O)CC1S/C(=N/N=C/c2ccc(-c3ccc(Cl)cc3)o2)NC1=O (stereo not drawn) [CBK264595] | 96.592
75 | COCOc1ccc(-c2nc(-c3ccco3)cnc2N)cc1 [CBK064108] | 122.239
76 | CCCc1nc(SC)ncc1C(=O)NCc1ccccn1 [CBK291190] | 110.634
77 | CC1CC1C(=O)NCCc1c[nH]c2cccc(C3(O)CCOCC3)c12 (stereo not drawn) [CBK284840] | 112.802
78 | CC1CCc2n[nH]c(C(=O)NCCCc3ccco3)c2C1 (stereo not drawn) [CBK283153] | 120.809
